# Data: US8258152B2, “N-substituted azaindoles and methods of use” (Genentech, Inc., priority 2007, dated 2012)
# Amino acid sequences for entries named in this document (tags omitted).
# UniProt Q02750, whole entry S218D/S222D: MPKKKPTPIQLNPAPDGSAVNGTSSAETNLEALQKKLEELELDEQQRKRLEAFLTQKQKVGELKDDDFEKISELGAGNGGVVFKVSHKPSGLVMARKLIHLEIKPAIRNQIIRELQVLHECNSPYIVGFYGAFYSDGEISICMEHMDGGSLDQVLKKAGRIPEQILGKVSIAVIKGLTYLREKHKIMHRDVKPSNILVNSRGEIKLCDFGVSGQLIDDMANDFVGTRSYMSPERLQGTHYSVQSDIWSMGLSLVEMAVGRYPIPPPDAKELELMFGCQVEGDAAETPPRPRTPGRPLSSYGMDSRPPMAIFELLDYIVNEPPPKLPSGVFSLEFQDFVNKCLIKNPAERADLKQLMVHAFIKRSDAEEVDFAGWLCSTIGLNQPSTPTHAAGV
# Some of these results come from one statement about several compounds together.
# Biological target: Constitutively activated human mutant MEK1 (Homo sapiens, UniProt Q02750)
# Assay: MEK Assay (MEK Activity Assay)
# Format: biochemical
# Details: 62.5 nM enzyme, 50 μM ATP, GST-ERK1 substrate, 30 minutes, HTRF detection, 1% DMSO; read-out: IC50 in the MEK activity assay of Example 1
row,IC50 [µM],Compound
1,< 5,"O=C(NOCC1CC1)c1cc2ccncc2n1Cc1ccc(I)cc1F [Example 6, 1-(2-Fluoro-4-iodo-benzyl)-1H-pyrrolo[2,3-c]pyridine-2-carboxylic acid cyclopropylmethoxy-amide]"
2,< 5,"O=C(NOC[C@H](O)CO)c1cc2c(Br)cncc2n1Cc1ccc(I)cc1F [Example 9, 4-Bromo-1-(2-fluoro-4-iodo-benzyl)-1H-pyrrolo[2,3-c]pyridine-2-carboxylic acid ((R)-2,3-dihydroxy-propoxy)-amide]"
3,< 5,"O=C(NOCCO)c1cc2ccncc2n1Cc1ccc(I)cc1F [Example 7, 1-(2-Fluoro-4-iodobenzyl)-N-(2-hydroxyethoxy)-1H-pyrrolo[2,3-c]pyridine-2-carboxamide]"
